Experimental data published in US20180085416A1, “TRADITIONAL CHINESE MEDICINE COMPOSITION AND PREPARATION METHOD AND USE THEREOF” (INFINITUS (CHINA) COMPANY LTD., priority 2016, published 2018).
At least one compound was matched to its structure with a doubt left.

Assays:
mouse tampon granuloma = assay: Chronic inflammatory model: cotton pellet (tampon) induced granuloma; assay type: in vivo, Balb/c mice; conditions: compared with model control group
Description: 80 Balb/c male mice (about 8 weeks old) were randomized into 8 groups based on body weight (10 mice/group). The groups were respectively model group and positive control group—dexamethasone group, high, medium and low dose groups of the traditional Chinese medicine composition produced by Comparative Example 1 (0.35, 1.05, 2.10 ml/kg), high, medium and low dose groups of the medicament produced by Example 1 (0.35, 1.05, 2.10 ml/kg). Animals from Comparative Example group and Examples of the present application groups were intragastrically administrated 30 days before modeling, once a day. Model control group was administered equal volume of deionized water. The administration volume was always 2.10 ml/kg. Dexamethasone group was administered at 10 mg/kg, and was intragastrically administrated 10 days before modeling. After the last administration, the mice were anesthetized by intraperitoneal injection of 3% pentobarbital sodium at a dose of 60 mg/kg body weight. After anesthesia, the animals were fixed in supine position, and the bilateral inguinal clothing hairs of the rats were removed with a hair removal device. After iodophor disinfection, the rats were subjected to skin incision for about 2 cm at both sides of the groin, and a sterilized tampon was implanted at both sides of the groin of the rats. […]

[1] = test system: carrageenan induced toe swelling of mice; assay: Acute inflammatory model: carrageenan-induced paw edema; assay type: in vivo, Balb/c mice; conditions: compared with model group
Description: 90 Balb/c male mice (about 8 weeks old) were randomized into 9 groups based on body weight (10 mice/group). The groups were respectively blank control group, model group and positive control group—dexamethasone group, high, medium and low dose groups of the traditional Chinese medicine composition produced by Comparative Example 1 (0.35, 1.05, 2.10 ml/kg), high, medium and low dose groups of the medicament produced by Example 1 (0.35, 1.05, 2.10 ml/kg). Animals from Comparative Example group and Examples of the present application groups were intragastrically administrated 30 days before modeling, once a day. Blank control group and model control group were administered equal volume of distilled water. The administration volume was always 2.10 ml/kg. Dexamethasone group was administered at 10 mg/kg, and was intragastrically administrated 10 days before modeling. The model control group was intragastrically administrated equal volume of distilled water for consecutive 30 days, once a day. […] The thickness of rat paws at 1, 2, 4 hours were measured respectively. Each animal was measured for 3 times at the same site, and the results were averaged. The swelling value is defined as the difference between the toe volumes measured at different times and the toe volumes before the action of proinflammatory agent, which is used to calculate the toe volume swelling rates at each time period. […]

[2] = test system: capsaicin induced rats' pharyngitis; assay: Effect on acute pharyngitis (capsaicin induced pharyngitis), EB dye exudation at pharyngeal mucosa; assay type: in vivo, SD rats; conditions: compared with model group

C[C@@H]1C[C@H]2[C@@H]3CCC4=CC(=O)C=C[C@]4(C)[C@@]3(F)[C@@H](O)C[C@]2(C)[C@@]1(O)C(=O)CO [dexamethasone, Dexamethasone]
net weight of granuloma induced by tampon, result in words (mouse tampon granuloma): significantly (P<0.05) reduce net weight of granuloma
carrageenan induced toe swelling degree of mice, result in words [1]: significantly (P<0.05) reduce carrageenan induced toe swelling degree
extravasation of evans blue (EB) in velopharyngeal tissue, result in words [2]: significantly (P<0.05) reduce the extravasation of evans blue (EB)
